# Counter-ions that a name gives are not always drawn. At least one structure is not confirmed: it was looked up by name or label, or the drawing left a doubt.
# System: dopamine D-1 receptor
smiles,measurement,setting,value
"NC[C@@H]1O[C@H](C23CC4CC(CC(C4)C2)C3)Cc2c(O)c(O)cc(Br)c21 (relative stereo) [Example 107, 1-Aminomethyl-8-bromo-adamantyl-5,6-dihydroxy-3,4-dihydro-1H-2-benzopyran Hydrobromide]",Intrinsic Activity (adenylate cyclase assay),"dopamine = 100, goldfish retina or rat striatum",85
same,EC50,"read-out: EC50 (agonist activity in adenylate cyclase assay), tissue from goldfish retina or rat striatum",240 nM
